Measurements from patent publication CN108948203A.
Results are given in words; binding and its absence hold for the method and conditions named. Some entries that bind do so weakly or less than the wild type.

Amino acid sequences for entries named in this document (tags omitted). Residues count along the entry.
UniProt Q15116, residues 25-170: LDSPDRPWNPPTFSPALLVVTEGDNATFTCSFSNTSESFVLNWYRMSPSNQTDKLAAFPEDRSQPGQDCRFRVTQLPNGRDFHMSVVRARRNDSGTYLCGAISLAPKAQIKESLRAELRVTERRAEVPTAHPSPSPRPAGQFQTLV

Assays:
[1] = target: 人PD-1胞外结构域的重组蛋白(PD-1) (human) (UniProt Q15116); experiment: Indirect ELISA (legend of figure 2)
[2] = target: 人PD-1胞外结构域的重组蛋白(PD-1) (human) (UniProt Q15116); experiment: Indirect ELISA, PD-1 coated at 1 μg/mL, goat anti-rabbit IgG-HRP

binding [1]: binds
binding [2]: binds
B1: NJDT003 (antibody)
heavy: QSVEESGGRLVTPGTPLTLTCTVSGFSLNSYNMNWVRQAPGKGLEWIGTIGKSGTTYFASWARGRFTISRTSTTVDLKMTSPTTEDTATYFCARDFAVDVGWGPGTLVTVSSGQPKAPSVFPLAPCCGDTPSSTVTLGCLVKGYLPEPVTVTWNSGTLTNGVRTFPSVRQSSGLYSLSSVVSVTSSSQPVTCNVAHPATNTKVDKTVAPSTCSKPMCPPPELPGGPSVFIFPPKPKDTLMISRTPEVTCVVVDVSQDDPEVQFTWYINNEQVRTARPPLREQQFNSTIRVVSTLPIAHQDWLRGKEFKCKVHNKALPAPIEKTISKARGQPLEPKVYTMGPPREELSSRSVSLTCMINGFYPSDISVEWEKNGKAEDNYKTTPTVLDSDGSYFLYSKLSVPTSEWQRGDVFTCSVMHEALHNHYTQKSISRSPGK
light: ADVVMTQTPSPVSAAVGGTVTISCQSSESVVDNDYLSWYQQKPGQPPKVLIYEISKLASGVPSRFSGSGSGTQFTLTISGVQCDDAATYYCAGAYASNRRAFGGGTEVVVKGDPVAPTVLIFPPAADQVATGTVTIVCVANKYFPDVTVTWEVDGTTQTTGIENSKTPQNSADCTYNLSSTLTLTSTQYNSHKEYTCKVTQGTTSVVQSFNRGDC
